Data on 42 sequences can be found in publication PMC7819943, “Rice protein-binding microarrays: a tool to detect cis-acting elements near promoter regions in rice”.

Sequences of proteins named here, by UniProt entry; tags and fusion partners are left off.
UniProt Q0JBA9, entry or part of it: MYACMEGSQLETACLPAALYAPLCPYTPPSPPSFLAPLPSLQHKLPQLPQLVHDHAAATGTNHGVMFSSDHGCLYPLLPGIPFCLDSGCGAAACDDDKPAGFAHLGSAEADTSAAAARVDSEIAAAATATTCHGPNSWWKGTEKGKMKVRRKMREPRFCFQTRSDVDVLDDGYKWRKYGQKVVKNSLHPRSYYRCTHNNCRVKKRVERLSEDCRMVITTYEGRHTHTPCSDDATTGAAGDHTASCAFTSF

Some of the results follow.

This assay concerns the target OsWRKY34 (Oryza sativa, UniProt Q0JBA9 1-250). Briefly: protein-binding microarray (RPBM); PBS, 2% BSA, 51.3 ng/ul salmon testes DNA, 50 uM zinc acetate, 200 nM TF, 25 C, 1 h; high values mean tight binding. To be noted: protein: recombinant; tags: N-terminal polyhistidine and DsRed monomer fusion (pET32a); label: CyDye5-dUTP incorporated in the synthesized complementary strand; 3' TTTTT single-stranded linker to array surface; dsDNA, one strand shown. A digest of the protocol:
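Ni–NTA purification followed expression in E. coli BL21-CodonPlus of transcription factors fused N-terminally to a polyhistidine tag and DsRed. At 200 nM in PBS with 2% BSA, salmon testes DNA and 50 µM zinc acetate, the protein was incubated for 1 h at 25 °C with a custom Agilent array that had been primer-extended with Cy5-dUTP and blocked with 2% BSA. After washing, the array was read on an Axon 4000B scanner. The binding signal is per-feature fluorescence intensity in arbitrary units.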
Turning to “GCGCTCTCGCCTCTTGCTCGCTCGCTCGCTCGCTGCGCCGCGGAGTCACCTAGTGCAG”, the binding signal is 9860 fluorescence intensity (a.u.). The figure for “GAAAATACCCGGCCCGCGAGTTGGATCCTTTTCCAAAAGCCGGAGTCACCTAGTGCAG” is 8850 fluorescence intensity (a.u.). The figure for “TCTCTCTCTCGATTTTCTCATCTCCACTGCTCCACGCTTCCGGAGTCACCTAGTGCAG” is 11800 fluorescence intensity (a.u.).

On to “TTGGCATCGACACGGTCTCCAAAACACAACTTTAACTTCTCGGAGTCACCTAGTGCAG”, for which the binding signal was 8720 fluorescence intensity (a.u.).

As for “GTTCTTTCGTCGTGGATTGTTTCTAGCTTTCTGCAAGTGACGGAGTCACCTAGTGCAG”, the binding signal is 15600 fluorescence intensity (a.u.). As to “TTTTCTCATTCTCACTTACATGTGGGCCCAATAACTTTTTCGGAGTCACCTAGTGCAG”, the binding signal was 8340 fluorescence intensity (a.u.). The figure for “TCATCTGGTGTAGGCATTAACTGCAACTCGAGTCATTTTCCGGAGTCACCTAGTGCAG” is 8260 fluorescence intensity (a.u.); for “TGAGGGGTCTTAATATTTTGATAATTATTCGTTAGCGTATCGGAGTCACCTAGTGCAG” it is 8550 fluorescence intensity (a.u.); for “GGCCGGCGAGGTGAGGGTACGCCGCGACGGCCCTGAGGAGCGGAGTCACCTAGTGCAG” it is 8400 fluorescence intensity (a.u.). As to “AAAGTTCATGGCTACTGCTCTTTTGCTGTATGGTTTACATCGGAGTCACCTAGTGCAG”, the binding signal is 9120 fluorescence intensity (a.u.). “GTCTACTACCTGAAACTCTCAGTCAGTCCGAAATTAAACACGGAGTCACCTAGTGCAG”: the binding signal is 9000 fluorescence intensity (a.u.).

In the case of “GGTTGTTAGATTTGGGGCTAGGGTTAAAAGATATGCTAGGCGGAGTCACCTAGTGCAG”, the binding signal is 8880 fluorescence intensity (a.u.).

Turning to “AAATTAGTACTGATCTTGTCCCGCTCAAGGCCTCAAACCTCGGAGTCACCTAGTGCAG”, the binding signal is 8270 fluorescence intensity (a.u.). Turning to “TTTTTGCGTTTCATACTAAAATCCTATGTTTTTTTTTTCGCGGAGTCACCTAGTGCAG”, the binding signal is 9420 fluorescence intensity (a.u.). As for “TGCAGTGTGTGTGTGTGTGTGTGTGTCCATGTGAATATGTCGGAGTCACCTAGTGCAG”, the binding signal was 10300 fluorescence intensity (a.u.). The figure for “TGCCAGTAACTTTGGTAGGTTTGTTTGTTTCTAGTTCTTTCGGAGTCACCTAGTGCAG” is 12700 fluorescence intensity (a.u.); for “CACAGTCCTACCCACCAACCTTAGGCTTGCTCCACCTTAGCGGAGTCACCTAGTGCAG” it is 8720 fluorescence intensity (a.u.). The figure for “GGCGCTGTTAGTAATACTGGAATATTGCCCTTGTCTTTGTCGGAGTCACCTAGTGCAG” is 8570 fluorescence intensity (a.u.).

Turning to “GGCATCCTCTATCCCGTCGCCACGTCCTCCGCCGCGGCGGCGGAGTCACCTAGTGCAG”, the binding signal is 13700 fluorescence intensity (a.u.). For “TATGGCCCTGTTTAGTTCCCATGCAAAAATTTTACACCATCGGAGTCACCTAGTGCAG”, the binding signal was 9300 fluorescence intensity (a.u.). The value for “TCGTTCATCTCATTCTTACCCCTATTCCTTCTACCAAACACGGAGTCACCTAGTGCAG” was 8720 fluorescence intensity (a.u.). As to “CGGCCACTTCCACATCGCCATTAATGAGCCTGGAGCAAGCCGGAGTCACCTAGTGCAG”, the binding signal is 9110 fluorescence intensity (a.u.). Turning to “TCAATCTTGGCCACTTGTATTCATCTCTAACTATTCTTTACGGAGTCACCTAGTGCAG”, the binding signal is 8530 fluorescence intensity (a.u.).

“GTCCACTAGCTCTCCACTCATCGTCACACGTTTTCGTACGCGGAGTCACCTAGTGCAG”: the binding signal is 9470 fluorescence intensity (a.u.). Consider “GAGAGGTGAGTTTATATTCCTTGGTTTCTAATTTGGCTGACGGAGTCACCTAGTGCAG”, for which the binding signal was 10300 fluorescence intensity (a.u.). The value for “TCGCATCCACACCTGTTTCCATCGTCCGTCACCACGTGCACGGAGTCACCTAGTGCAG” was 9400 fluorescence intensity (a.u.); that for “GTAGTTTCCAGTTTCCTCGTACTCTCTCCCGGCAATAATTCGGAGTCACCTAGTGCAG” was 14800 fluorescence intensity (a.u.); that for “GCTTCTCCATCTCGCATCTGCTGCCTCCTAATTTGCTTCGCGGAGTCACCTAGTGCAG” was 10000 fluorescence intensity (a.u.). On to “TCTCTCTCTCTCTGCTTCTCTCACACTCTACTGCTGCTCACGGAGTCACCTAGTGCAG”, for which the binding signal was 12000 fluorescence intensity (a.u.). The value for “CCCCGACTCCCGTCTCCTCGCATTCGCTCACCGGTGAGCACGGAGTCACCTAGTGCAG” was 8750 fluorescence intensity (a.u.); that for “GCATCCCCGTCTCATCCCTCCCCGCATGTCCCTCTACAGTCGGAGTCACCTAGTGCAG” was 8110 fluorescence intensity (a.u.).

Consider “ATCCATTCCTTGATTTCTCTAGTGAGCTTCGCCGCATTTCCGGAGTCACCTAGTGCAG”, for which the binding signal is 12800 fluorescence intensity (a.u.). The value for “TCATTTTTTTTGAACCTGGTATGTTTGGGCTTTATTATAACGGAGTCACCTAGTGCAG” was 9400 fluorescence intensity (a.u.). The value for “TCATCGTTTGGCTTTTCCACTAATAAGCCAAAACAGTTTACGGAGTCACCTAGTGCAG” was 8580 fluorescence intensity (a.u.); that for “CTCTGGCTCTGTCCCCTCGCGCCCTCGCAGCCATGGCCGTCGGAGTCACCTAGTGCAG” was 8460 fluorescence intensity (a.u.). The figure for “TCTTCTTGTTCTTCTCCATCTCTAAGCACTTCTACCTAACCGGAGTCACCTAGTGCAG” is 10100 fluorescence intensity (a.u.); for “ATGTGGTTGCAAGGGCAGGGTAATGTTGAGCGCTGAATACCGGAGTCACCTAGTGCAG” it is 9110 fluorescence intensity (a.u.). “AATGGTGGTGGTGGAATCAATCAATCAATCGATCGATCAACGGAGTCACCTAGTGCAG”: the binding signal is 9630 fluorescence intensity (a.u.). The figure for “ACGTCAATCCACGTCTCTTCGTGTCTAGGATCCACACGTCCGGAGTCACCTAGTGCAG” is 10600 fluorescence intensity (a.u.). For the sequence “TTGCTCCTGGACCGGACGACGACGGCGGTGGCGGCATTGACGGAGTCACCTAGTGCAG”, the binding signal is 8330 fluorescence intensity (a.u.). The figure for “GCTAATATATTTTTTTACAAATTTGGTTTAAATTTGACCTCGGAGTCACCTAGTGCAG” is 9080 fluorescence intensity (a.u.); for “ATTATTTATTTTATTTGTGACATACTTTATTATCTACAGTCGGAGTCACCTAGTGCAG” it is 8080 fluorescence intensity (a.u.).
